Values from PubChem BioAssay AID1224830 (NIAID, 2016)
Screen: 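Host factors that control LPS-induced TNF expression in human macrophages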 (primary screen). System: human THP-1 monocytic leukaemia cells, TNF dual-luciferase reporter clone, PMA-differentiated to macrophage-like cells. Reagent: siRNA pool against human genes, 50 nM. Duration: LPS for 4 h, given about 3 days after siRNA transfection. Treatment: bacterial LPS (TLR4 ligand), 10 ng/ml. Measurement: 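Ratio of firefly to renilla light, scaled to the plate median and expressed as a robust z-score per replicate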. Reading the numbers: TNF reporter robust z-score: higher = stronger TNF reporter response to LPS. Call rule: 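Each well counts as active if its z-score is over 2.8 or under -1.5; controls are left without a call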.
Here is a random part of about 18,000 deposited reagents. About 2,900 of them (16%) were called active. 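Calls are made per well; low scores hint the gene aids the LPS response, high scores that it dampens it.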 Repeated entries: four replicate wells of each siRNA pool. No sequences are given here.

| TNF reporter robust z-score | Outcome | gene knocked down |
| --- | --- | --- |
| -1.57 | active | KSR2 |
| -1.51 | active | KSR2 |
| -1.49 | inactive | KSR2 |
| -1.04 | inactive | KSR2 |
| -0.95 | inactive | GJB3 |
| -0.76 | inactive | GJB3 |
| -0.87 | inactive | GJB3 |
| 0.07 | inactive | GJB3 |
| 0.91 | inactive | AASDHPPT |
| 1.47 | inactive | AASDHPPT |
| 1.23 | inactive | AASDHPPT |
| 1.95 | inactive | AASDHPPT |
| 0.44 | inactive | XDH |
| -0.17 | inactive | XDH |
| 0.42 | inactive | XDH |
| 0.83 | inactive | XDH |
| -0.51 | inactive | HELZ2 |
| 0.13 | inactive | HELZ2 |
| -0.22 | inactive | HELZ2 |
| -0.35 | inactive | HELZ2 |
| 0.49 | inactive | HPN |
| 1.69 | inactive | HPN |
| 1.81 | inactive | HPN |
| 1.18 | inactive | HPN |
| -0.47 | inactive | ZNF148 |
| -0.18 | inactive | ZNF148 |
| -0.67 | inactive | ZNF148 |
| 0.29 | inactive | ZNF148 |
| 0.07 | inactive | ZFP3 |
| -0.06 | inactive | ZFP3 |
| -0.76 | inactive | ZFP3 |
| -0.15 | inactive | ZFP3 |
| 0.33 | inactive | SOX2 |
| 0.74 | inactive | SOX2 |
| 0.58 | inactive | SOX2 |
| 0.72 | inactive | SOX2 |
| 0.51 | inactive | CTSS |
| 0.15 | inactive | CTSS |
| -0.94 | inactive | CTSS |
| -0.37 | inactive | CTSS |
| -1.03 | inactive | PM20D1 |
| -0.41 | inactive | PM20D1 |
| -0.48 | inactive | PM20D1 |
| -0.15 | inactive | PM20D1 |
| -1.31 | inactive | AIPL1 |
| 0.34 | inactive | AIPL1 |
| -0.46 | inactive | AIPL1 |
| 1.22 | inactive | AIPL1 |
| -0.67 | inactive | LAMP5 |
| -0.37 | inactive | LAMP5 |
| -0.3 | inactive | LAMP5 |
| -0.41 | inactive | LAMP5 |
| 0.56 | inactive | PWP2 |
| 1.43 | inactive | PWP2 |
| 2.41 | inactive | PWP2 |
| 1.52 | inactive | PWP2 |
| -1.19 | inactive | ELL |
| -1.2 | inactive | ELL |
| -0.93 | inactive | ELL |
| -1.08 | inactive | ELL |
| -0.37 | inactive | DLG5 |
| 0.72 | inactive | DLG5 |
| 0 | inactive | DLG5 |
| 0.14 | inactive | DLG5 |
| 0.43 | inactive | CDH2 |
| -0.17 | inactive | CDH2 |
| 0.65 | inactive | CDH2 |
| -0.03 | inactive | CDH2 |
| 0.41 | inactive | CCNC |
| 0.86 | inactive | CCNC |
| -0.11 | inactive | CCNC |
| 1.24 | inactive | CCNC |
| -1.02 | inactive | PLEKHA8P1 |
| -0.28 | inactive | PLEKHA8P1 |
| -0.96 | inactive | PLEKHA8P1 |
| -0.95 | inactive | PLEKHA8P1 |

An excerpt taken from the entries so far, as a working copy:
| TNF reporter robust z-score | Outcome | gene knocked down |
| --- | --- | --- |
| 0.72 | inactive | DLG5 |
| 0 | inactive | DLG5 |
| 0.14 | inactive | DLG5 |
| 0.43 | inactive | CDH2 |
| -0.17 | inactive | CDH2 |
| 0.65 | inactive | CDH2 |
| -0.03 | inactive | CDH2 |
| 0.41 | inactive | CCNC |
| 0.86 | inactive | CCNC |
| -0.11 | inactive | CCNC |
| 1.24 | inactive | CCNC |
| -1.02 | inactive | PLEKHA8P1 |
| -0.28 | inactive | PLEKHA8P1 |
